Measurements reported in PubChem BioAssay AID504764 (Drosophila RNAi Screening Center, 2011).

Assay: 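Genome-wide screen for regulators of Notch-driven gene expression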 (primary screen)
System: Drosophila Kc167 cells
Knock-down reagent: long dsRNA against Drosophila genes
Duration: about 5 days (4 days dsRNA, then 24 h after transfection)
Conditions: transfection of constitutively active membrane-tethered Notch lacking the extracellular domain, read 24 h later
Measured: 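Light from a Notch-responsive E(spl)m3 luciferase reporter under active Notch, with control-promoter and no-Notch reporter wells to normalise; raw counts from paired wells a and b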
Reading the numbers: induced reporter light, run 1, well a and induced reporter light, run 1, well b: higher = more light from the Notch target reporter with active Notch; control promoter light, run 1, well a and control promoter light, run 1, well b: higher = more light from the viral control promoter (cell number, transfection, viability); uninduced reporter light, run 1, well a: higher = more light from the Notch target reporter without active Notch
Hit rule: 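Hit if the duplicate-averaged log2 ratio of induced to control-promoter light gives a plate-wise z beyond ±2, or induced to uninduced beyond ±1.8; weak-control or discordant-duplicate wells dropped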
Meaning of the calls: active = modifier hit (raised or lowered Notch signal); inactive = not a hit
The screen tested about 22,000 reagents; this is a random part of those with a known target gene and a result. In the full data, 403 (1.9%) got an active call. 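Unnormalised raw counts per well; ratio z-scores behind the hit calls and whether each hit raises or lowers signal are not deposited.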 Entries without a mark were called inactive. Names joined by + are all predicted targets of the reagent. No sequences are given here. Not given: the amount of reagent.

no.	gene knocked down	dsRNA	induced reporter light, run 1, well a	induced reporter light, run 1, well b	control promoter light, run 1, well a	control promoter light, run 1, well b	uninduced reporter light, run 1, well a
1	CG14333 (retired record)	DRSC14812	1.74e5	1.93e5	1.92e5	2.01e5	16725
2	CG14333 (retired record)	DRSC15769	1.66e5	1.73e5	2.32e5	2.33e5	15215
3	eIF3g2	DRSC14275	1.40e5	1.42e5	1.69e5	1.60e5	9670
4	Sugb	DRSC10815	97440	89090	83505	39100	8370
5	CG8675	DRSC20117	1.11e5	88425	91035	44210	7810
6	CG11123	DRSC06040	1.91e5	1.81e5	2.27e5	1.97e5	16065
7	CG15439	DRSC00453	1.82e5	1.67e5	3.31e5	3.24e5	14410
8	CG10089	DRSC09694	80815	76470	85070	68035	6475
9	CG10089	DRSC09695	2.23e5	1.71e5	2.91e5	2.09e5	15735
10	CG6462	DRSC10641	2.10e5	1.68e5	2.03e5	1.84e5	11882
11	Ppa	DRSC04598	1.39e5	1.24e5	1.52e5	1.44e5	10595
12	Trm7-32	DRSC15741	1.11e5	1.19e5	1.04e5	1.05e5	11380
13	CG13358	DRSC18534	1.05e5	1.05e5	1.74e5	2.06e5	8965
14	Ugt36F1	DRSC02601	47650	39340	48400	40240	3575
15	sprt	DRSC07323	1.92e5	1.54e5	1.58e5	1.35e5	13755
16	Spn47C	DRSC07030	1.45e5	1.40e5	1.30e5	1.42e5	13842
17	CCAP-R	DRSC14891	1.73e5	1.75e5	1.99e5	1.77e5	12345
18	CCAP-R	DRSC15967	1.45e5	1.32e5	1.65e5	1.87e5	12000
19	fwd	DRSC08580	71060	77495	1.23e5	1.42e5	5885
20	sls	DRSC08528	50695	41665	85815	93955	3755
21	sls	DRSC08540	1.29e5	1.26e5	1.62e5	1.87e5	10475
22	sls	DRSC08670	1.35e5	1.58e5	2.58e5	2.02e5	11130
23	Tom	DRSC11306	1.86e5	1.62e5	1.06e5	1.24e5	11495
24	KdelR	DRSC03353	1.79e5 (active)	1.80e5	94730	92575	14170
25	Gasz	DRSC06829	1.21e5	96300	1.10e5	85405	11500
26	CG42512 + CG32573	DRSC19532	55360	40710	63835	64070	7605
27	CG42512 + CG32573	DRSC19906	1.30e5	1.17e5	1.07e5	75130	8875
28	SPARC	DRSC14123	1.60e5	1.36e5	1.98e5	1.74e5	12465
29	CG3117	DRSC00568	1.39e5	1.35e5	1.18e5	1.06e5	13330
30	Tdrd3	DRSC10016	1.85e5	1.46e5	2.46e5	1.60e5	6105
31	CG4866	DRSC06899	81690	71285	1.07e5	91475	7745
32	CG30031 + deltaTry + CG30025 + 1 more	DRSC21262	99800	1.10e5	1.10e5	1.44e5	8810

Reprinted from above (6 entries):
no.	gene knocked down	dsRNA	induced reporter light, run 1, well a	induced reporter light, run 1, well b	control promoter light, run 1, well a	control promoter light, run 1, well b	uninduced reporter light, run 1, well a
9	CG10089	DRSC09695	2.23e5	1.71e5	2.91e5	2.09e5	15735
10	CG6462	DRSC10641	2.10e5	1.68e5	2.03e5	1.84e5	11882
11	Ppa	DRSC04598	1.39e5	1.24e5	1.52e5	1.44e5	10595
12	Trm7-32	DRSC15741	1.11e5	1.19e5	1.04e5	1.05e5	11380
13	CG13358	DRSC18534	1.05e5	1.05e5	1.74e5	2.06e5	8965
14	Ugt36F1	DRSC02601	47650	39340	48400	40240	3575

Continued.
no.	gene knocked down	dsRNA	induced reporter light, run 1, well a	induced reporter light, run 1, well b	control promoter light, run 1, well a	control promoter light, run 1, well b	uninduced reporter light, run 1, well a
33	CG4829	DRSC19920	1.24e5	1.27e5	1.24e5	52205	11915
34	CG33483	DRSC14019	73450	90730	1.16e5	1.05e5	6755
35	Rbpn-5	DRSC04440	1.92e5	1.85e5	2.15e5	2.26e5	17230
36	Fibp	DRSC11031	1.02e5	1.31e5	66610	90480	9035
37	CG32829	DRSC00961	1.09e5	90300	1.32e5	1.28e5	7425
38	fs(1)K10	DRSC18775	1.78e5	1.62e5	1.52e5	1.44e5	11090
39	Odc2	DRSC07483	2.23e5	1.81e5	2.66e5	2.23e5	18195
40	DIP-alpha	DRSC17891	1.86e5	1.76e5	2.68e5	2.41e5	12810
41	DIP-alpha	DRSC17892	36490	30125	11445	15195	9230
42	Ref1	DRSC12497	1.63e5	1.29e5	83445	83265	8955
43	CG12609	DRSC19473	1.51e5	1.39e5	1.40e5	1.85e5	13435
44	CG30470 (retired record)	DRSC05553	75590	72075	75640	63880	12820
45	CG30470 (retired record)	DRSC06260	86850	93565	1.17e5	1.13e5	8395
46	CG30470 (retired record)	DRSC06261	69840	75000	1.04e5	1.13e5	8455
47	CG30470 (retired record)	DRSC06777	77920	80970	1.46e5	1.10e5	6620
48	Csgalnact	DRSC06228	2.12e5	2.08e5	2.48e5	2.24e5	19270
49	CG13694	DRSC00363	94570	94715	84050	47070	8032
50	Polr3D	DRSC10485	85915	89265	59275	58390	7260
